PubChem BioAssay AID1224830 – NIAID, 2016
Here is one part, drawn at random, of about 18,000 reagents tested. About 2,900 of all reagents (16%) count as active. 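Calls are made per well; low scores hint the gene aids the LPS response, high scores that it dampens it.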 Unmarked entries are inactive. Repeated entries: four replicate wells of each siRNA pool.

Aim: 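Host factors that control LPS-induced TNF expression in human macrophages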 (primary screen)
Cell system: human THP-1 monocytic leukaemia cells, TNF dual-luciferase reporter clone, PMA-differentiated to macrophage-like cells
Reagents: siRNA pool against human genes, 50 nM
Timing: LPS for 4 h, given about 3 days after siRNA transfection
Challenge: bacterial LPS (TLR4 ligand), 10 ng/ml
Detection: 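TNF firefly reporter luminescence divided by renilla, normalised to the plate median, then turned into a robust z-score for each replicate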
Scale: TNF reporter robust z-score: higher = stronger TNF reporter response to LPS
Rule for the call: 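a well is active when its z-score exceeds 2.8 or falls below -1.5; control wells carry no call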

target gene | TNF reporter robust z-score
UTP14C (UTP14C small subunit processome component) | -0.29
UTP14C (UTP14C small subunit processome component) | -0.31
UTP14C (UTP14C small subunit processome component) | -0.27
UTP14C (UTP14C small subunit processome component) | 0.22
RABL2A (RAB, member of RAS oncogene family like 2A) | -0.21
RABL2A (RAB, member of RAS oncogene family like 2A) | 0.33
RABL2A (RAB, member of RAS oncogene family like 2A) | -0.69
RABL2A (RAB, member of RAS oncogene family like 2A) | 0.06
CRB3 (crumbs cell polarity complex component 3) | -1.21
CRB3 (crumbs cell polarity complex component 3) | -0.96
CRB3 (crumbs cell polarity complex component 3) | -1.28
LANCL2 (LanC like glutathione S-transferase 2) | 0.16
LANCL2 (LanC like glutathione S-transferase 2) | 0.69
LANCL2 (LanC like glutathione S-transferase 2) | -0.59
LANCL2 (LanC like glutathione S-transferase 2) | 0.24
GOLGA8EP (golgin A8 family member E, pseudogene) | 0.24
GOLGA8EP (golgin A8 family member E, pseudogene) | 0.14
GOLGA8EP (golgin A8 family member E, pseudogene) | -0.28
GOLGA8EP (golgin A8 family member E, pseudogene) | -0.31
CDK12 (cyclin dependent kinase 12) | -0.44
CDK12 (cyclin dependent kinase 12) | -0.97
CDK12 (cyclin dependent kinase 12) | -0.79
CDK12 (cyclin dependent kinase 12) | -0.93
HPSE2 (heparanase 2 (inactive)) | -1.56 (active)
HPSE2 (heparanase 2 (inactive)) | -0.99
HPSE2 (heparanase 2 (inactive)) | -1.29
HPSE2 (heparanase 2 (inactive)) | -0.16
NRSN2 (neurensin 2) | 2.88 (active)
NRSN2 (neurensin 2) | 2.09
NRSN2 (neurensin 2) | 3.48 (active)
NRSN2 (neurensin 2) | -0.11
KLRC2 (killer cell lectin like receptor C2) | -1.07
KLRC2 (killer cell lectin like receptor C2) | -0.38
KLRC2 (killer cell lectin like receptor C2) | -1.14
RPAP3 (RNA polymerase II associated protein 3) | -1.68 (active)
RPAP3 (RNA polymerase II associated protein 3) | -1.49
RPAP3 (RNA polymerase II associated protein 3) | -1.57 (active)
MXI1 (MAX interactor 1, dimerization protein) | -0.79
MXI1 (MAX interactor 1, dimerization protein) | -0.84
MXI1 (MAX interactor 1, dimerization protein) | -0.71
MXI1 (MAX interactor 1, dimerization protein) | 0.21
CAMKV (CaM kinase like vesicle associated) | 0.11
CAMKV (CaM kinase like vesicle associated) | 0.66
CAMKV (CaM kinase like vesicle associated) | 0.13
CAMKV (CaM kinase like vesicle associated) | -0.02
AKNAD1 (AKNA domain containing 1) | 0.36
AKNAD1 (AKNA domain containing 1) | 1.85
AKNAD1 (AKNA domain containing 1) | 0.7
AKNAD1 (AKNA domain containing 1) | 2.61
NFE2L2 (NFE2 like bZIP transcription factor 2) | -0.55
NFE2L2 (NFE2 like bZIP transcription factor 2) | 0.62
NFE2L2 (NFE2 like bZIP transcription factor 2) | 0.07
NFE2L2 (NFE2 like bZIP transcription factor 2) | 0.4
ANKHD1-EIF4EBP3 (ANKHD1-EIF4EBP3 readthrough) | 1.22
ANKHD1-EIF4EBP3 (ANKHD1-EIF4EBP3 readthrough) | 0.03
ANKHD1-EIF4EBP3 (ANKHD1-EIF4EBP3 readthrough) | -0.63
ANKHD1-EIF4EBP3 (ANKHD1-EIF4EBP3 readthrough) | 1.31
MIOS (meiosis regulator for oocyte development) | 1.6
MIOS (meiosis regulator for oocyte development) | 1.57
MIOS (meiosis regulator for oocyte development) | 0.87
MIOS (meiosis regulator for oocyte development) | -0.03
RNF17 (ring finger protein 17) | 0.08
RNF17 (ring finger protein 17) | -1.48
RNF17 (ring finger protein 17) | -1.62 (active)
RNF17 (ring finger protein 17) | 0.51
RFX5 (regulatory factor X5) | -1.48
RFX5 (regulatory factor X5) | -1.31
RFX5 (regulatory factor X5) | -1.26
DNMT1 (DNA methyltransferase 1) | 0.39
DNMT1 (DNA methyltransferase 1) | -0.91
DNMT1 (DNA methyltransferase 1) | -0.26
DNMT1 (DNA methyltransferase 1) | 0.65
CFAP91 (cilia and flagella associated protein 91) | 1.52
CFAP91 (cilia and flagella associated protein 91) | 1.74
CFAP91 (cilia and flagella associated protein 91) | 2.02
CFAP91 (cilia and flagella associated protein 91) | 2.12

Reagents listed so far called active:
target gene | TNF reporter robust z-score
HPSE2 (heparanase 2 (inactive)) | -1.56 (active)
NRSN2 (neurensin 2) | 2.88 (active)
NRSN2 (neurensin 2) | 3.48 (active)
RPAP3 (RNA polymerase II associated protein 3) | -1.68 (active)
RPAP3 (RNA polymerase II associated protein 3) | -1.57 (active)
RNF17 (ring finger protein 17) | -1.62 (active)
